{"sequences": {"note": "By UniProt entry, the sequences of proteins in these tests, tags left out. Residues count along the entry.", "UniProt P06971, residues 34-747": "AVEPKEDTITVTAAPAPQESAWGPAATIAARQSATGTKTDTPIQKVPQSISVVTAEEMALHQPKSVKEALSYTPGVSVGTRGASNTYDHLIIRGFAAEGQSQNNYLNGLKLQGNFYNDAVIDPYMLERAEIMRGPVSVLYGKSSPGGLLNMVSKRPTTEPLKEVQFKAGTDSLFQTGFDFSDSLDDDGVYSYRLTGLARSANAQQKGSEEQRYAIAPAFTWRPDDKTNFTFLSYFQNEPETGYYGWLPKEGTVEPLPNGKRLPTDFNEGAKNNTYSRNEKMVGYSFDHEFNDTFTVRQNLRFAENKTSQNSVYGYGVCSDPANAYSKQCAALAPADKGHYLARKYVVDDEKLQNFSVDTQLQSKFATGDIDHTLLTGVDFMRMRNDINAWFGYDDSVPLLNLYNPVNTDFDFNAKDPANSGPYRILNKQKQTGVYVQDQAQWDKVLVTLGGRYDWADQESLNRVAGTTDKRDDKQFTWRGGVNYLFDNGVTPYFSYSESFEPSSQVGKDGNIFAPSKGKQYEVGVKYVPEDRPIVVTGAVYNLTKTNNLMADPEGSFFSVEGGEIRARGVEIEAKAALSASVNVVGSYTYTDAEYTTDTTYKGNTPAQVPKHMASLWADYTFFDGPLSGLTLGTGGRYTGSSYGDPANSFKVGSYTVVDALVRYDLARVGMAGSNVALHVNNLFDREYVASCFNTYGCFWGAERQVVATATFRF"}, "source": "paper PMC9586334", "about": "(Proceedings of the National Academy of Sciences of the …, 2022)", "binders": {"B1": {"name": "Llp, superinfection exclusion lipoprotein of bacteriophage T5 (protein, UniProt Q38162 16-77)", "chain": "CSTFGPKDIKCEAYYMQDHVKYKANVFDRKGDMFLVSPIMAYGSFWAPVSYFTEGNTCEGVF", "modifications": "lipid anchor on Cys1; Cys11-Cys58 disulphide bond"}}, "biological_target": "FhuA as in the FhuA–Llp crystals (mature part, treated with TEV protease) (E. coli) (UniProt P06971)", "test": "crystal structure; FhuA–Llp co-overexpressed in E. coli, TEV-treated, in C8E4; 16% PEG 4K, 0.4 M (NH4)2SO4, 0.1 M NaAc, pH 4.5, 20 °C", "note": "No constants are given. Whether binding was seen depends on the method and setting. Some binding calls cover weakened binding; strength is not graded here."}
{"binder": "B1", "values": [{"measurement": "binding", "value": "binds"}]}
